In paper PMC12040169 (PLOS Biology, 2025):
This is one part of the list.

system: T1, CTL2-GFP (C. trachomatis L2/434/Bu, GFP-expressing); design: species or system HeLa; Intracellular C. trachomatis growth in HeLa cells, bulk GFP fluorescence relative to DMSO; details: bulk GFP, single well; 28.5 h, 10 µM; inhibitor
T1 construct: L2/434/Bu, GFP-expressing

Row | Structure (SMILES) | % of control remaining [%]
1 | CC(C)(C)c1ccc(S(=O)(=O)N2CCCC[C@H]2COC(=O)CCC(=O)O)cc1 [CBK200063] | 108.933
2 | COC(=O)C1CCN(Cc2ccc(-c3nnn(CC(=O)NCc4ccc(C)cc4)n3)cc2)C1 (stereo not drawn) [CBK155406T] | 125.968
3 | O=S(=O)(Nc1ccc2[nH]ccc2c1)c1cc(C(F)(F)F)cc(C(F)(F)F)c1 [CBK156330] | 108.268
4 | CCOc1ccc(CN2CCN(C(=O)c3ccc(-c4ccccc4)cc3)CC2)cc1 [CBK263399] | 95.5247
5 | FC(F)(F)c1nnc(-c2cc3sccc3s2)o1 [CBK006303] | 110.468
6 | CC(CC(=O)N1CCC(Oc2ccccc2F)CC1)n1cccn1 (stereo not drawn) [CBK282118] | 147.084
7 | C=C(C)CN1CCN(CC(CC(=O)NCc2ccccc2)C(=O)O)CC1 (stereo not drawn) [CBK286823] | 140.402
8 | O=C(Nc1cccnc1)c1ccc(F)cc1Cl [CBK288246] | 123.418
9 | CCN(CC)C1CCN(C(=O)Nc2cc(NC(C)=O)ccc2F)C1 (stereo not drawn) [CBK305207] | 135.188
10 | CC(C)c1noc(NCCc2cn3c(n2)CCCC3)n1 [CBK306444] | 100.093
11 | Cc1ccccc1NC(=O)CCC(=O)N/N=C/c1ccncc1 [CBK262016] | 123.561
12 | CCOC(=O)c1cn[nH]c1N [CBK175217] | 110.004
13 | O=c1[nH]c(=O)c2cc(S(=O)(=O)N3CCCCC3CN3CCCCC3)ccc2[nH]1 (stereo not drawn) [CBK286393] | 135.992
14 | CCCC/C=C/c1nccnc1NCc1cccs1 [CBK038090] | 137.235
15 | O=C(O)c1cccc(NS(=O)(=O)c2ccccc2)c1 [CBK155710] | 120.77
16 | CN(C)Cc1ccccc1C(O)c1ccccc1 (stereo not drawn) [CBK261277] | 120.367
17 | COc1cccc(N2CCN(CCCOc3ccc(F)cc3)CC2)n1 [CBK010355F] | 111.494
18 | CCOC(=O)c1c(C)nc(-c2ccccc2)nc1NC(=O)C(C)C [CBK028118] | 109.956
19 | O=C(O)Cn1c(=O)[nH]c2c(-c3ccccc3)c[nH]c2c1=O [CBK287218] | 138.346
20 | Cc1ccc(-c2ncc(OCCn3ccnc3)nc2N)cc1C [CBK145148] | 100
21 | Cc1occc1-c1nn(CCN2CCCCC2)c(=O)o1 [CBK283815] | 158.6
22 | O=C(NC1CCCCC1)c1ccc(-c2ccccc2)nc1NCCc1ccccn1 [CBK076553] | 131.585
23 | CC(C)Oc1ccc(C(=O)C2=C(O)C(=O)N(Cc3cccnc3)C2c2cccc([N+](=O)[O-])c2)cc1 (stereo not drawn) [CBK264936] | 131.373
24 | CS(=O)(=O)Nc1ccc2cc(-c3ccccc3)cnc2n1 [CBK061899] | 127.415
25 | O=C(Cn1c(-c2cccs2)cc2cccnc21)N1CCCC1 [CBK282453] | 131.592
26 | COc1cccc(Oc2cnc(-c3cccc(C(F)(F)F)c3)c(N)n2)c1 [CBK145177] | 100

Row | Structure (SMILES) | % of control remaining [%]
27 | O=P(O)(CN1CCCCC1)C1CCCCC1O (stereo not drawn) [CBK262325] | 119.884
28 | CCCC(=O)Nc1nnc(-c2ccc(Cl)cc2)o1 [CBK287594] | 126.422
29 | Cn1cc(Cl)c(C2CCCCCN2C(=O)c2cc(C3CC3)on2)n1 (stereo not drawn) [CBK285120] | 111.765
30 | CC(C)NC(=O)N1Cc2nc[nH]c2C[C@H]1c1nc(-c2ccc(OC(F)(F)F)cc2)no1 [CBK288960] | 93.5087
31 | Cc1nc(C)n(CC2CCCCN2Cc2cn3ccccc3c2C#N)n1 (stereo not drawn) [CBK306102] | 122.984
32 | Cn1cccc1C(=O)N[C@H]1C[C@H]2C(=O)Nc3ccc(/C=C/c4ccccc4)cc3C(=O)N2C1 [CBK289367] | 98.5058
33 | O=C(CN1CCC(C(=O)NC(c2ccccc2)c2ccsc2)CC1)c1ccc(F)cc1 (stereo not drawn) [CBK148432] | 100
34 | CC#Cc1cn([C@H]2C[C@@H](O)[C@@H](CO)O2)c(=O)[nH]c1=O [CBK201182] | 148.986
35 | O=C(NC(c1ccccc1)c1ccccc1)N1CCN(c2ccccc2)CC1 [CBK155177] | 109.997
36 | CCn1c(CC2CCN(C(=O)CCN3CCCCO3)CC2)nn(C)c1=O [CBK307217] | 151.232
37 | CC(C)(C)c1nc(COc2ccc3nonc3c2)no1 [CBK005831] | 130.418
38 | COc1ccc(CCNC2CCN(Cc3ccccc3)CC2c2ccccc2)cc1OC (stereo not drawn) [CBK286166] | 124.16
39 | Cc1ccc(C#N)cc1S(=O)(=O)NC(=O)COCC1CC1 [CBK304427] | 110.699
40 | OCc1ccc(CN2C[C@H](O)C[C@H]2c2nc(-c3cnccn3)no2)o1 [CBK288832] | 129.008
41 | COc1cc2ncnc(NCc3ccccc3)c2cc1OC [CBK287984] | 141.467
42 | C[C@H](c1ccccc1)n1c(=O)[nH]c2ncc(-c3ccc(C(=O)N4CCN(C)CC4)cc3)nc21 [CBK064559] | 95.5715
43 | CCOC(=O)C1CSCN1C(=O)c1cnn(C(CC)CC)c1C (stereo not drawn) [CBK304759] | 96.7986
44 | Cc1nc(S(=O)(=O)N2CCC(OCC3CC3)C2)cn1C (stereo not drawn) [CBK304668] | 110.712
45 | CSc1ncc(C(=O)NC2CCCC2)c(NC2CCCC2)n1 [CBK291223] | 121.19
46 | Oc1nc(O)c2c(n1)NC1(CCC1)[C@@H]1C[C@@H](O)[C@@H](O)[C@H]21 [CBK303249] | 122.531
47 | Cc1n[nH]c(O)c1C(c1cccc([N+](=O)[O-])c1)c1c(C)n[nH]c1O [CBK264753] | 100
48 | O=C(CN1CCC(C(=O)c2ccc(F)cc2)CC1)Nc1ncccn1 [CBK149131] | 109.218
49 | COc1cc2oc(=O)c(CC(=O)N3CCCC(C(=O)O)C3)c(C)c2cc1Cl (stereo not drawn) [CBK286754] | 113.406
50 | O=C(CCOc1ccccc1)Nc1cncc(OC2CCNCC2)n1 [CBK026734T] | 123.006
51 | O=C(CCNS(=O)(=O)c1ccccc1)OCc1ccc([N+](=O)[O-])cc1 [CBK296659] | 130.129

By substructure, the compounds so far with a furan ring, fused or not.
Row | Structure (SMILES) | % of control remaining [%]
21 | Cc1occc1-c1nn(CCN2CCCCC2)c(=O)o1 [CBK283815] | 158.6
40 | OCc1ccc(CN2C[C@H](O)C[C@H]2c2nc(-c3cnccn3)no2)o1 [CBK288832] | 129.008
